From patent CN115894704A
Results are given in words; binding and its absence hold for the method and conditions named. Some binding calls cover weakened binding; strength is not graded here. Sequences can lack the tags named with a protein.

T1: EpCAM-His蛋白 (UniProt P16422)
T1 sequence (looked up): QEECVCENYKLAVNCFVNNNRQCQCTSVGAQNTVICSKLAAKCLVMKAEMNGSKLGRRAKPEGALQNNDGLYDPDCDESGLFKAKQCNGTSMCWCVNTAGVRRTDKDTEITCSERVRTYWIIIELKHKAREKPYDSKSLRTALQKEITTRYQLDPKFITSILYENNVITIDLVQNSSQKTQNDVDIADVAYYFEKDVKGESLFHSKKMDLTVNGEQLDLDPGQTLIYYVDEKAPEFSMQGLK

B1: Anti-EpCAM-VHH SEQ ID NO 1 VHH-hFc融合蛋白 (Fc fusion, not shown: a dimerising Fc or GST)
chain: DVQLVESGGGSVQSGGSLRLSCAASGYTYRRYYMGWFRQAPGEQREGVAVINNDGRTNYADSVKGRFRISRDNAENTLHLEMNSLKPEDTAMYYCAATGNILPPMTAVPPLGRQWYPYWGRGTLVTVSS
B2: Anti-EpCAM-VHH SEQ ID NO 2 VHH-hFc融合蛋白 (Fc fusion, not shown: a dimerising Fc or GST)
chain: HVQLVESGGGSVQSGGSLRLSCAASGYAVKNCMGWFRQAPGKEREGVAVINRNGITTYADSVKGRFTISQDKDKNTLDLQMNSLKPEDTAMYYCAATPTLLTIPARFLCDVRNPSGFTDWGQGTLVTVSS
B3: Anti-EpCAM-VHH SEQ ID NO 3 VHH-hFc融合蛋白 (Fc fusion, not shown: a dimerising Fc or GST)
chain: QVQLVESGGGSVQAGGSLRLSCVVSAYSAYTYKTMCMGWFRQAPGKEREGVAAIYRGGLNTYYADSVKGRFIISRDNAESTMYLQMNSLKPEDTAMYYCAADWLRGDDCNIGANFDYWGQGTQVTVSS
B4: Anti-EpCAM-VHH SEQ ID NO 4 VHH-hFc融合蛋白 (Fc fusion, not shown: a dimerising Fc or GST)
chain: QVQLVESGGGSVQAGGSLRLSCVATGFTISRKCMGWFREAPGKKREVIATINTGSSSPYYADGVKGRFTISQDNAKNTVYLQMNSLKPEDTAMYYCAATKGVVVGTGYCGGPYVERPNSAYWGQGTQVTVSS
B5: Anti-EpCAM-VHH SEQ ID NO 5 VHH-hFc融合蛋白 (Fc fusion, not shown: a dimerising Fc or GST)
chain: DVQLVESGGGSVQAGRSLRLSCELSDYTWSTVCMGWFRQAPGKEREGVAVIYTRSGGTTYADSAKGRFTISRDNAKDTLYLQMDSLKPEDTAMYYCAAGPLYDGRCTYRSPAFHYWGQGTQVTVSS
B6: Anti-EpCAM-VHH SEQ ID NO 6 VHH-hFc融合蛋白 (Fc fusion, not shown: a dimerising Fc or GST)
chain: DVQLVESGGGSAQAGGSLRLSCAASGPTSSLRTMGWFRQASGKERERVAVIWDGRTTDYDDSVQDRFTISQDNAKSTVYLQMNTLKPEDTAMYYCAASPRIVPFASTYFQHWGQGTQVTVSS
B7: Anti-EpCAM-VHH SEQ ID NO 7 VHH-hFc融合蛋白 (Fc fusion, not shown: a dimerising Fc or GST)
chain: HVQLVESGGGSVQAGGSLKLSCAASGSIFSGSIFSRCGMRWYRQAPGKERELVSSTSKDGFTSYTDSVKGRFTISQDNANNTLYLQMSSLKTEDTAVYSCAAICAVGGYSLSTYTYWGQGTQVTVSS
B8: Anti-EpCAM-VHH SEQ ID NO 8 VHH-hFc融合蛋白 (Fc fusion, not shown: a dimerising Fc or GST)
chain: EVQLVESGGDSVQAGGSLRLSCAASGYSPGSYCMGWFRQAPGKERERVAIIESRGTVTYVDSVKGRFTISKDNAKNTLYLQMNSLKPEDTAMYYCAASRPWSGVRCLHDKYDYWGQGTQVTVSS
B9: Anti-EpCAM-VHH SEQ ID NO 9 VHH-hFc融合蛋白 (Fc fusion, not shown: a dimerising Fc or GST)
chain: HVQLVESGGGSVQSGGSLRLSCAVSGYAYSSLAWFRQAPGKEREGVAALLTAIGGPTRTTYADSVKGRLAISQDHAKNTLYLQMSSLKPEDTAMYYCAAGRPAGTPRWLLLAPRDYNYWGQGTQVTVSS

Each binder was assayed against T1, EpCAM-His蛋白 (assay: ELISA, EpCAM-His coated, VHH-hFc titrated, anti-hFc-HRP).

| Binder | binding |
| --- | --- |
| B1 | binds |
| B2 | binds |
| B3 | binds |
| B4 | binds |
| B5 | binds |
| B6 | binds |
| B7 | binds |
| B8 | binds |
| B9 | binds |
